These results are taken from the supplement of paper PMC4807443.

The structures appear in SMILES notation. Where a name gives a salt, the structure may show the parent alone. Some of the results follow. The numbers are fractions of the control, whatever unit the source prints. Most values lie at the level of the controls, where differences are scatter.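 A lentiviral reporter stably expressed in MIN6 mouse insulinoma beta cells uses Pdx1 and Ins1 promoters to drive separate nucleus-targeted fluorescent proteins; automated imaging with Hoechst nuclear stain counted cells. Possible hits were drugs shifting Ins1 promoter signal more than two median absolute deviations from DMSO controls, with Pdx1 activity roughly normal.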

The test system of the assay is MIN6. As to the kind of experiment: % Pdx1+ Ins1-low (RFP-only, immature) cells relative to DMSO control (fold of DMSO control); higher = more immature Pdx1+/Ins1-low cells. The following applies: 8.5 µM; 48 h; glucose 5 mM.
`c1cnc(N2CCN(Cc3ccc4c(c3)OCO4)CC2)nc1` [Piribedil hydrochloride]: the “% Pdx1+ Ins1-low” value turned out to be 1.35.
Under `C[C@](N)(Cc1ccc(O)c(O)c1)C(=O)O` [Methyldopa (L,-)] stands 1.05; under `CCCC1C(=O)N2C(N(C)C)=Nc3ccc(C)cc3N2C1=O` (configuration not stated) [Azapropazone], 0.706.
`C[C@H]1c2cccc(O)c2C(=O)C2=C(O)[C@]3(O)C(=O)C(C(N)=O)=C(O)[C@@H](N(C)C)[C@@H]3[C@@H](O)[C@@H]21` [Doxycycline hydrochloride]: the “% Pdx1+ Ins1-low” value amounted to 0.73.
For `C1COC(NC(C2CC2)C2CC2)=N1` [Rilmenidine hemifumarate] the value was 0.8; for `O=C(O)c1cn(C2CC2)c2cc(N3CCNCC3)c(F)cc2c1=O` [Ciprofloxacin hydrochloride], 0.717.
Under `CC(=O)[C@@]1(O)CC[C@H]2[C@@H]3C[C@H](C)C4=CC(=O)C=C[C@]4(C)[C@@]3(F)[C@@H](O)C[C@@]21C` [Fluorometholone] stands 1.03.
Under `CCc1nc(N)nc(N)c1-c1ccc(Cl)cc1` [Pyrimethamine] stands 1; under `CC(C)NCC(O)COc1ccc(CCOCC2CC2)cc1` (configuration not stated) [Betaxolol hydrochloride], 0.713.
For `C1CCC(C(CC2CCCCN2)C2CCCCC2)CC1` (configuration not stated) [Perhexiline maleate], the “% Pdx1+ Ins1-low” value is 1.23.
Under `COc1cc(C(=O)NCc2ccc(OCCN(C)C)cc2)cc(OC)c1OC` [Trimethobenzamide hydrochloride] stands 1.04; under `Cc1ccc2c(c1)c1c3n2CCNC3CCC1` (configuration not stated) [Pirlindole mesylate], 0.523; under `O=C(N[C@H](CO)[C@H](O)c1ccc([N+](=O)[O-])cc1)C(Cl)Cl` [Chloramphenicol], 1.76.
`CCC[C@@H]1C[C@@H](C(=O)N[C@@H]([C@H]2O[C@H](SC)[C@H](O)[C@@H](O)[C@H]2O)[C@H](C)Cl)N(C)C1` [Clindamycin hydrochloride]: the “% Pdx1+ Ins1-low” value worked out at 0.546.
For `Cn1cnc2c1c(=O)[nH]c(=O)n2C` [Theobromine] the value was 1.03.
For `CC(C)(CO)C(O)C(=O)NCCCO` (configuration not stated) [Panthenol (D)] the value was 1.07; for `CN(C)C/C=C(/c1ccc(Br)cc1)c1cccnc1` [Zimelidine dihydrochloride monohydrate], 0.76; for `CCOc1ccc2ccccc2c1C(=O)N[C@@H]1C(=O)N2[C@@H]1SC(C)(C)[C@@H]2C(=O)O` [Nafcillin sodium salt monohydrate], 1.01.
Under `CCN(CC)CCNC(=O)c1cc(Cl)c(N)cc1OC` [Metoclopramide monohydrochloride] stands 0.97; under `Nc1ccccc1S(N)(=O)=O` [2-Aminobenzenesulfonamide], 0.622.
`CC(C)[N+](C)(CCOC(=O)C1c2ccccc2Oc2ccccc21)C(C)C` [Propantheline bromide]: the “% Pdx1+ Ins1-low” value worked out at 0.633.
In the case of `CN(C)CCC=C1c2ccccc2COc2ccccc21` [Doxepin hydrochloride], the “% Pdx1+ Ins1-low” value came to 1.26.
For `N[C@@H](C(=O)N[C@@H]1C(=O)N2C(C(=O)O)=C(Cl)CC[C@H]12)c1ccccc1` [Loracarbef] the value was 0.672; for `Cc1onc(-c2ccccc2Cl)c1C(=O)N[C@@H]1C(=O)N2[C@@H]1SC(C)(C)[C@@H]2C(=O)O` [Cloxacillin sodium salt], 1.18; for `CN[C@@H]1[C@H](O)[C@H](NC)[C@H]2O[C@@]3(O)C(=O)C[C@@H](C)O[C@H]3O[C@@H]2[C@H]1O` [Spectinomycin dihydrochloride], 1.04.
With `NS(=O)(=O)c1cc2c(cc1Cl)NC(C(Cl)Cl)NS2(=O)=O` (configuration not stated) [Trichlormethiazide], the “% Pdx1+ Ins1-low” value is 0.935.
As to `Cc1c(-c2ccccc2)oc2c(C(=O)OCCN3CCCCC3)cccc2c1=O` [Flavoxate hydrochloride], the “% Pdx1+ Ins1-low” value turned out to be 0.902.
For `CN[C@@H]1[C@@H](O[C@H]2O[C@H](CO)[C@@H](N)[C@H](O)[C@H]2O)OC2C[C@@H](N)[C@@H](O[C@H]3[C@H](O)[C@@H](O)[C@H](N)C[C@@H]3N)OC2[C@@H]1O` (some centres not stated) [Apramycin] the value was 0.942; for `CN(C)C(=O)C(CCN1CCC(O)(c2ccc(Cl)cc2)CC1)(c1ccccc1)c1ccccc1` [Loperamide hydrochloride], 1.29; for `Cc1cccc(C)c1NC(=O)C(C)N` (configuration not stated) [Tocainide hydrochloride], 1.14.
As for `CCCCc1cc2ccccc2c(OCCN(C)C)n1` [Dimethisoquin hydrochloride], the “% Pdx1+ Ins1-low” value was determined as 1.16.
For `COc1cc([S+](C)[O-])ccc1-c1nc2cccnc2[nH]1` (configuration not stated) [Sulmazole] the value was 0.969; for `C[C@H]1O[C@@H](O[C@H]2[C@@H](O)C[C@H](O[C@H]3[C@@H](O)C[C@H](O[C@H]4CC[C@@]5(C)[C@H](CC[C@@H]6[C@@H]5C[C@@H](O)[C@]5(C)[C@@H](C7=CC(=O)OC7)CC[C@]65O)C4)O[C@@H]3C)O[C@@H]2C)C[C@H](O)[C@@H]1O` [Digoxin], 0.943; for `CC(C(=O)O)c1ccc(-c2ccccc2)c(F)c1` (configuration not stated) [Flurbiprofen], 0.827.
Under `O=C(OCC(O)CO)c1ccccc1Nc1ccnc2cc(Cl)ccc12` (configuration not stated) [Glafenine hydrochloride] stands 0.884; under `O=c1ccc2cc(O)c(O)cc2o1` [Esculetin], 0.644.
Turning to `Cc1cccc(C)c1OCC(C)N` (configuration not stated) [Mexiletine hydrochloride], the “% Pdx1+ Ins1-low” value came to 1.28.
For the compound `CC(=O)[C@H]1CC[C@H]2[C@@H]3C=CC4=CC(=O)CC[C@@]4(C)[C@@H]3CC[C@]12C` [Dydrogesterone], the “% Pdx1+ Ins1-low” value was determined as 0.585.
For `COc1ccccc1OCC(O)CO` (configuration not stated) [Guaifenesin] the value was 0.75; for `NC[C@@H]1O[C@H](O[C@H]2[C@@H](O)[C@H](O[C@@H]3[C@@H](O)[C@H](N)C[C@H](N)[C@H]3O[C@H]3O[C@H](CO)[C@@H](O)[C@H](O)[C@H]3N)O[C@@H]2CO)[C@H](N)[C@@H](O)[C@@H]1O` [Paromomycin sulfate], 1.08; for `Cc1c(N(C)C)c(=O)n(-c2ccccc2)n1C` [Amidopyrine], 1.27.
For `Oc1ccc(/C=C/c2cc(O)cc(O)c2)cc1` [Resveratrol], the “% Pdx1+ Ins1-low” value stood at 0.912.
Under `COc1ccc(OC)c(C(O)CNC(=O)CN)c1` (configuration not stated) [Midodrine hydrochloride] stands 0.677.
For `CN1CCN(CCCN2c3ccccc3Sc3ccc(C(F)(F)F)cc32)CC1` [Trifluoperazine dihydrochloride] the value was 1.01; for `CC[C@H](C)[C@H](N)C1=N[C@H](C(=O)N[C@@H](CC(C)C)C(=O)N[C@H](CCC(=O)O)C(=O)N[C@H](C(=O)N[C@H]2CCCCNC(=O)[C@H](CC(N)=O)NC(=O)[C@@H](CC(=O)O)NC(=O)[C@H](Cc3cnc[nH]3)NC(=O)[C@@H](Cc3ccccc3)NC(=O)[C@H]([C@@H](C)CC)NC(=O)[C@@H](CCCN)NC2=O)[C@@H](C)CC)CS1` [Bacitracin], 0.814.
With `Oc1c(I)cc(Cl)c2cccnc12` [Clioquinol], the “% Pdx1+ Ins1-low” value is 0.924.
For `CC(=O)c1ccc2c(c1)N(CCCN(C)C)c1ccccc1S2` [Acetopromazine maleate salt] the value was 1.07; for `CN(C)CCOC(C)(c1ccccc1)c1ccccn1` (configuration not stated) [Doxylamine succinate], 0.838; for `Nc1ccn([C@H]2CC[C@@H](CO)O2)c(=O)n1` [Zalcitabine], 0.448.
For `CN(C(=O)C(Cl)Cl)c1ccc(OC(=O)c2ccco2)cc1` [Diloxanide furoate] the value was 0.871.
For `Nc1nc2ccc(OC(F)(F)F)cc2s1` [Riluzole hydrochloride] the value was 1.23; for `COc1ccc2c(c1)c(CC(=O)O)c(C)n2C(=O)c1ccc(Cl)cc1` [Indomethacin], 0.74; for `O=C(C1CCCCC1)N1CC(=O)N2CCc3ccccc3C2C1` (configuration not stated) [Praziquantel], 1.17.
On to `C(=C\c1ccccc1)/CN1CCN(C(c2ccccc2)c2ccccc2)CC1` [Cinnarizine], for which the “% Pdx1+ Ins1-low” value was 0.801.
As to `CCOC(=O)O[C@]1(C(=O)COC(=O)CC)CC[C@H]2[C@@H]3CCC4=CC(=O)C=C[C@]4(C)[C@H]3[C@@H](O)C[C@@]21C` [Prednicarbate], the “% Pdx1+ Ins1-low” value was 0.747.
Regarding `COc1ccc2c(c1OC)C(=O)O[C@@H]2[C@H]1c2c(cc3c(c2OC)OCO3)CCN1C` [Noscapine], the “% Pdx1+ Ins1-low” value was 1.13.
For the compound `C=C1c2c(Cl)ccc(O)c2C(=O)C2=C(O)[C@]3(O)C(=O)C(C(N)=O)=C(O)[C@@H](N(C)C)[C@@H]3[C@@H](O)[C@H]12.O=C(O)c1cc(S(=O)(=O)O)ccc1O` [Meclocycline sulfosalicylate], the “% Pdx1+ Ins1-low” value is 0.97.
For `CC(C)(C)NCC(O)COc1cccc2c1CCC(=O)N2` (configuration not stated) [Carteolol hydrochloride] the value was 1.2; for `COc1ccc([C@@H]2CC(=O)c3c(O)cc(O[C@@H]4O[C@H](CO[C@@H]5O[C@@H](C)[C@H](O)[C@@H](O)[C@H]5O)[C@@H](O)[C@H](O)[C@H]4O)cc3O2)cc1O` [Hesperidin], 0.718; for `C[N+]1(C)C[C@H](O)C[C@H]1C(=O)[O-]` [Betonicine], 0.504.
As for `NS(=O)(=O)c1cc(C(=O)O)cc(N2CCCC2)c1Oc1ccccc1` [Piretanide], the “% Pdx1+ Ins1-low” value came to 1.31.
For `CN(C)CCCN1c2ccccc2Sc2ccccc21` [Promazine hydrochloride] the value was 0.707; for `Cc1cc(C(C)(C)C)c(O)c(C)c1CC1=NCCN1` [Oxymetazoline hydrochloride], 0.755; for `CSc1ccc2c(c1)C(N1CCN(C)CC1)Cc1ccccc1S2` (configuration not stated) [Methiothepin maleate], 0.818.
For `COC(=O)[C@H]1[C@H]2C[C@H]3c4[nH]c5ccccc5c4CCN3C[C@@H]2CC[C@@H]1O` [Corynanthine hydrochloride] the value was 1.14; for `C[C@]1(OC(=O)/C=C/c2ccccc2)C[C@@H](O)[C@]2(O)C=CO[C@@H](O[C@@H]3O[C@H](CO)[C@@H](O)[C@H](O)[C@H]3O)[C@@H]21` [Harpagoside], 0.71; for `Clc1cnccn1` [2-Chloropyrazine], 0.726.
